{"source": "BindingDB's records for doi:10.1074/jbc.M500805200", "about": "(Chinese Academy of Sciences, 2005)", "molecular_target": "T1, Casein kinase I isoform alpha (Rattus norvegicus, UniProt P97633)", "T1 sequence (P97633 whole entry)": "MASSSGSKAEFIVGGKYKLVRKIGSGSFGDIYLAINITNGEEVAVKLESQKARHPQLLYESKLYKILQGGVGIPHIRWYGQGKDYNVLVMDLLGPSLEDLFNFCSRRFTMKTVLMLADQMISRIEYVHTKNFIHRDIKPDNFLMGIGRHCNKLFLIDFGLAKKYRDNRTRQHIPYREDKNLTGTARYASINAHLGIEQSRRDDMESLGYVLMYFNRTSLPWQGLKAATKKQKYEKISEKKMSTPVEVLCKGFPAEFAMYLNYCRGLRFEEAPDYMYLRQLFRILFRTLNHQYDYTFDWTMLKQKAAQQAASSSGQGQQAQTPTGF", "details": "pH 7.2; 30 °C"}
{"smiles": "CC[C@H](CO)Nc1nc(NCc2ccccc2)c2ncn(C(C)C)c2n1", "note": "[2,6,9-Trisubstituted purine deriv. 28]", "values": [{"measurement": "IC50", "result": 100, "unit": "µM"}]}
